Results deposited as PubChem BioAssay AID504774 (Drosophila RNAi Screening Center, 2011)

- Screen: 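Fly genes whose loss alters survival after alkylation damage to DNA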 (primary screen)
- Cells: Drosophila Kc167 cells
- Reagents: long dsRNA against Drosophila genes, about 0.25 µg dsRNA per well
- Timing: about 6 days: 3 days knock-down, then 3 days with or without MMS
- Challenge: methyl methanesulphonate 0.004% (w/v) for 3 days after knock-down
- Measured: 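Viability in wells given MMS, read as ATP luminescence, normalised by quantiles plate by plate and averaged across replicates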
- Reading the numbers: mean viability with MMS and viability with MMS: higher = more surviving cells after MMS
The screen tested about 23,000 reagents; shown is a random part of those with a known target gene and a result. 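Values are quantile-normalised luminescence on an arbitrary scale; higher means more cells surviving MMS.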 The numbers tell different reagents against one gene apart. A plus sign joins genes that one reagent is predicted to hit. Reagent sequences are not shown.

The opening 2 entries, to show the layout:
Gene	reagent	mean viability with MMS	viability with MMS, replicate 1	viability with MMS, replicate 2
TwdlJ	1	3.57e6	4.04e6	4.07e6
CG13800 (retired record)	1	3.61e6	4.10e6	4.06e6

Results, from the start:
Gene	reagent	mean viability with MMS	viability with MMS, replicate 1	viability with MMS, replicate 2
TwdlJ	1	3.57e6	4.04e6	4.07e6
CG13800 (retired record)	1	3.61e6	4.10e6	4.06e6
Naa20A	1	3.60e6	4.23e6	3.97e6
Gpb5	1	3.59e6	3.97e6	4.14e6
CG17234	1	3.43e6	3.97e6	3.78e6
yin	1	3.63e6	4.04e6	4.18e6
yin	2	3.33e6	3.88e6	3.84e6
Brd	1	3.60e6	4.07e6	4.08e6
COX2 (retired record)	1	3.49e6	3.99e6	3.95e6
CG13829	1	3.62e6	4.15e6	4.06e6
Mcad	1	3.54e6	4.02e6	4.02e6
Ance	1	3.58e6	4.06e6	4.10e6
E(spl)m5-HLH	1	3.57e6	4.06e6	4.04e6
mRpS5	1	3.52e6	4.06e6	3.95e6
CG3860	1	3.46e6	4.09e6	3.92e6
CG18132	1	3.49e6	3.92e6	3.99e6
PAN3	1	3.55e6	4.07e6	3.97e6
Vtld + CG42529	1	3.59e6	4.10e6	4.04e6
Est-6	1	3.63e6	4.04e6	4.14e6
CG8562	1	3.53e6	4.05e6	3.97e6
Acsx1L	1	3.41e6	3.73e6	4.03e6
elfless	1	3.51e6	4.09e6	3.88e6
CG6276	1	3.47e6	3.91e6	3.94e6
SmydA-7	1	3.45e6	3.95e6	3.88e6
Syx16	1	3.45e6	3.93e6	3.85e6
garz	1	3.32e6	3.48e6	3.87e6
CG15657	1	3.56e6	4.08e6	4.00e6
CG15531	1	3.55e6	3.94e6	4.09e6
